The results in this text go back to PMC9959553, “Promising Antifungal Molecules against Mucormycosis Agents Identified from Pandemic Response Box®: In Vitro and In Silico Analyses” (Journal of Fungi, 2023).

The test system of the experiment is R. oryzae UCP1295. The experiment in a line: Screening of the Pandemic Response Box library at 5 µM. It is filed as cell-based, Rhizopus oryzae. Conditions: 48 h, Table S1, mean of the four values. On the procedure: Rhizopus oryzae UCP is the most prevalent Mucorales species in human infections and was used as a reference strain to screen the Pandemic Response Box® library. Screening was performed according to Rollin-Pinheiro and colleagues. Each compound was diluted in RPMI 1640 medium (Sigma Chemical Co., St. Louis, MO, USA), supplemented with 2% glucose and buffered with 3-(N-morpholino) propanesulfonic acid (MOPS) (Sigma Chemical Co., St. Louis, MO, USA) (0.165 mol/L, pH 7.2, from here on referred to as ‘supplemented RPMI’) to reach 5 μM in 96-well microtiter plates. Posaconazole (5 μM) and supplemented RPMI containing 1% DMSO were used as controls (both from Sigma Chemical Co., St. Louis, MO, USA). Conidia (2 × 10^5/mL) were added and incubated for 48 h at 37 °C in a 5% CO2 atmosphere. […] An inhibition of at least 60% was defined as the cut-off to select the promising drugs with antifungal activity against the Rhizopus species.

As to `Cl.Clc1ccc(COC(Cn2ccnc2)c2ccc(Cl)cc2Cl)c(Cl)c1` (stereo not shown) [MMV002722], the “% of growth inhibition, Mean” value is -15.6%.
